Test results reported in PMC12785750.
No constants are given. Whether binding was seen depends on the method and setting. In cells and extracts the contact can be indirect. Some entries that bind do so weakly or less than the wild type.

Chains of the proteins cited; added tags and fusions are not shown. Residues count along the entry.
UniProt P08648, residues 42-1049: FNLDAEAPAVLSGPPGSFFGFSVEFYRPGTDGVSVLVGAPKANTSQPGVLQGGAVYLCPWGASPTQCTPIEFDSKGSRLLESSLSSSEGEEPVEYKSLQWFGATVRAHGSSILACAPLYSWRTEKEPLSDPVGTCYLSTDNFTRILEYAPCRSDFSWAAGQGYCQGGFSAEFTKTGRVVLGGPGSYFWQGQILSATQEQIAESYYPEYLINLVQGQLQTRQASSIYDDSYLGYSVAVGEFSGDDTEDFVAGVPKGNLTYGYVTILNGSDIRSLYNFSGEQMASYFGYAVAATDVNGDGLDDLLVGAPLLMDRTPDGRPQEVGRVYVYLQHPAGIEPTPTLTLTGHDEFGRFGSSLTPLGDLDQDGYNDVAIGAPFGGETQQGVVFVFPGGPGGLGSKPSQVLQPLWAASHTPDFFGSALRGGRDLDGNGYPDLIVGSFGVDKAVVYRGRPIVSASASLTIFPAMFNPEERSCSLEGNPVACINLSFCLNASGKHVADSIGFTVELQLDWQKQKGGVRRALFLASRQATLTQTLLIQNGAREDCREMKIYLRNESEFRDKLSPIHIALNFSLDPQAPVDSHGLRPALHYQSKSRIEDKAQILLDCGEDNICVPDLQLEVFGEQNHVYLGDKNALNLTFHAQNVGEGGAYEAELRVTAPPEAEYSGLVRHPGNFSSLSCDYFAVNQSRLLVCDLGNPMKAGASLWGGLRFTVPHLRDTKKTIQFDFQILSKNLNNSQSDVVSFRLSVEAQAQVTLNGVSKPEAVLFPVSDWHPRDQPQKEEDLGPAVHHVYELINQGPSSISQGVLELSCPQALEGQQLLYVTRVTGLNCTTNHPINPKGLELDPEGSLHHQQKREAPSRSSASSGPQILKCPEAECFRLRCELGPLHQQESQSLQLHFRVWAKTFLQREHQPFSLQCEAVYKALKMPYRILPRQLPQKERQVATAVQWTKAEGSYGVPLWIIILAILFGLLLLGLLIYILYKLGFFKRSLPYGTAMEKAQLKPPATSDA

Molecular target: Integrin alpha-5 (ITGA5) (UniProt P08648)
Test: co-IP; cell protein extracts in Co-IP Lysis Buffer, pre-cleared with magnetic beads at 4 °C for 1 h; target-specific antibodies overnight at 4 °C; Protein A/G magnetic beads 4 h at 4 °C; Western blot; cells and precipitated protein not stated

B1: microfibril-associated protein 5 (MFAP5) (protein, UniProt Q13361 22-173)
chain: IPLGVNSQRGDDVTQATPETFTEDPNLVNDPATDETVLAVLADIAPSTDDLASLSEKNTTAECWDEKFTCTRLYSVHRPVKQCIHQLCFTSLRRMYIVNKEICSRLVCKEHEAMKDELCRQMAGLPPRRLRRSNYFRLPPCENVDLQRPNGL
**Q.** B1 was tested. Which binding did it give?
**A.** binds
